Measured values: US11213514B2, “Alpha-1-adrenergic receptor agonist therapy” (The Regents of the University of California, priority 2016, dated 2022)
At least one compound was matched to its structure with a doubt left.

Assays:
mouse heart ATP content = conditions: trametinib 1 mg/kg gavage once daily
Method: FIGS. 3A-3E. […] Heart tissue was collected immediately after sacrifice on Day 7. FIG. 3A. […] Gene set analysis was performed on the DESeq2-derived statistics from an omnibus test across these four categories. […] FIG. 3B. RNA abundance for all sequenced cytochrome C oxidase subunits (25 genes), mitochondrial complex I subunits (42 genes), and ATP synthase subunits (17 genes) was aggregated by group and compared to vehicle treatment. FIG. 3C. Quantitative RT-PCR for peroxisome proliferator-activated receptor gamma coactivator 1-alpha (PGC1α) was performed on mouse heart tissue (n in individual bars) FIG. 3D. ATP content was measured in freshly harvested mouse heart tissue (total n in individual bars), then quantified relative to protein content. […] FIG. 3E. Thiobarbituric acid reactive substances (TBARS) were assayed in mouse myocardium.
(FIG. 3B). […] (FIG. 3C).
Mouse hearts were removed and immediately processed for luciferin-luciferase ATP assay (ThermoFisher Scientific A22066) according to manufacturer instruction. Tissue was homogenized and heated at 95 C for 7 minutes, centrifuged at 14000 rpm for 5 minutes. Total protein in the supernatant was quantified using the Bradford Assay (Pierce #23200). Luminescence was measured at 560 nm.

ERK = ERK activation in mouse heart lysates with DOX, dabuzalgron and trametinib; assay type: in vivo; conditions: mice; trametinib 1 mg/kg by gavage once daily, 7 days
Excerpt: FIGS. 4A-4F. […] The reaction was stopped immediately and lysates were blotted for total and phospho-ERK (pERK). FIG. 4A. […] FIG. 4B. […] FIG. 4C. […] The average pERK/ERK ratio for each experiment was derived from at least 2 individual wells and normalized to the pERK/ERK ratio for vehicle treated NRVMs. FIG. 4D and FIG. 4E. […] Heart lysates were blotted for pERK and ERK. Results were compared using one way ANOVA with Tukey post-test. FIG. 4F.
On Day 7, mice underwent echocardiography and were sacrificed by cervical dislocation after an overdose of isoflurane.
Homogenized tissue or cells were lysed in RIPA buffer with protease and phosphatase inhibitor (as above) and the lysate was passed through a Qiashredder. Equal protein abundance was assured with the Bradford assay (tissue lysates) or equal cell number (NRVMs). Samples were run for 2 hours at 140 v on ice on a Novex NuPAGE 4-12% Bis-Tris gel then transferred to a PVDF membrane at 90V for 1 hour on ice. Membranes were blocked in 5% milk at room temperature for 1 hour. We used Cell Signaling kit #9100 (pERK Thr202/Tyr204 1:250, ERK 1:1000, anti-rabbit HRP 1:1000). BID: (Santa Cruz, SC-11423); Cytochrome C: (Santa Cruz, SC-13560); AIF: (Santa Cruz, SC-13116); Caspase 8: (MBL international corporation, JM-3020-100); PARP: (Cell Signaling, #9532); Caspase 3: (Cell Signaling, #9665); Cleaved caspase 3: (Cell Signaling, #9664)

Structure (SMILES): CC(=O)Nc1cccc(-n2c(=O)n(C3CC3)c(=O)c3c(Nc4ccc(I)cc4F)n(C)c(=O)c(C)c32)c1 [trametinib]
- effect on dabuzalgron's beneficial effect on ATP synthesis after DOX (mouse heart ATP content): abrogated
- ERK activation in heart (ERK): almost completely eliminated
